Assay results: the supplement of paper PMC12823440, “Inhibitors supercharge kinase turnover through native proteolytic circuits” (Nature, 2025)
Some of the results follow. Hit calls seldom repeat between salt and free forms of one compound.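 Kinases, fused to nanoluciferase, were expressed in K562 cells; luminescence was measured every 4 h from 2 to 18 h as percent of control (DMSO = 100%, positive control = 0%). A time point is decreased if signal falls significantly (2 sigma). Hits were called by the authors by a rule that is not shown; the count of time points alone does not decide it.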

Protein sequences, listed by entry. Tags and fused reporters are not part of them. Lines headed by an entry give the natural chain unless they say otherwise; changes in a name come on top.
UniProt Q6PHR2: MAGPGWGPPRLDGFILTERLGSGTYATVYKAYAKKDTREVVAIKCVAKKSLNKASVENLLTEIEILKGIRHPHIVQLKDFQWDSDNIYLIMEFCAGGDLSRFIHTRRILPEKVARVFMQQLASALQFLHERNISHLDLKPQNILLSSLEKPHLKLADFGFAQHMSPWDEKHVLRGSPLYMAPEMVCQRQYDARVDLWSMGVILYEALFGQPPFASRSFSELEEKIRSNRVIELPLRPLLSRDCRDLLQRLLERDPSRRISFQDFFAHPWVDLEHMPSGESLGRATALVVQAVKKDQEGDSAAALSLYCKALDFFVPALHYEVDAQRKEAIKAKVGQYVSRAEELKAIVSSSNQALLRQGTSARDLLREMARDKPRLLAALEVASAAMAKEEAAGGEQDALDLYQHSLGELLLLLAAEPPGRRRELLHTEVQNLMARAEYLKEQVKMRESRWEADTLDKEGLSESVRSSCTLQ
UniProt Q14289, whole entry, looked up: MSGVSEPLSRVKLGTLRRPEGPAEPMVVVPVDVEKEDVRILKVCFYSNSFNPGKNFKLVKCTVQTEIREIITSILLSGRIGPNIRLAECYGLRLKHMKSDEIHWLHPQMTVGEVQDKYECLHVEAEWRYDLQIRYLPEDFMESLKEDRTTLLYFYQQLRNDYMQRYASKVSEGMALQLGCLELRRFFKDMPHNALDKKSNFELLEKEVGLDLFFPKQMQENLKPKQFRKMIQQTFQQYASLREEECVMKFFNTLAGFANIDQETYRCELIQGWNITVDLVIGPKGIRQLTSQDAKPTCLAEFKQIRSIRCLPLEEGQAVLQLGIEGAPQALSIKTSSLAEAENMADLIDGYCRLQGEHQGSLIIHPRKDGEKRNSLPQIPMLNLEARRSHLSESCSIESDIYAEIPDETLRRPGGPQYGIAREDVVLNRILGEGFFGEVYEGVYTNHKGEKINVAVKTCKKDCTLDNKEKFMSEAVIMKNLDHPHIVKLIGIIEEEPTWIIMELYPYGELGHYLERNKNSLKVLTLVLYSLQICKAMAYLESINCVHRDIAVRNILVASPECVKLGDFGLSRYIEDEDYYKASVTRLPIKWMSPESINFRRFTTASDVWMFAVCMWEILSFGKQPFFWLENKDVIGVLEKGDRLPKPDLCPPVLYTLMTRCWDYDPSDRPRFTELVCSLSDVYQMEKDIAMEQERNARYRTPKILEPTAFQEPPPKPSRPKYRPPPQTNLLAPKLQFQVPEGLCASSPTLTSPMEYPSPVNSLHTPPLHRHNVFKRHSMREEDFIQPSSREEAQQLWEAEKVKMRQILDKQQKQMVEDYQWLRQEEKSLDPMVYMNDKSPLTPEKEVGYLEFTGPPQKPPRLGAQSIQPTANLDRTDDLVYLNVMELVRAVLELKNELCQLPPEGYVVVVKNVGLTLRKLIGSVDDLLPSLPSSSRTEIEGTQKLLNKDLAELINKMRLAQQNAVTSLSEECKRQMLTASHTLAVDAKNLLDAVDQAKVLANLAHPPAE
UniProt Q13131: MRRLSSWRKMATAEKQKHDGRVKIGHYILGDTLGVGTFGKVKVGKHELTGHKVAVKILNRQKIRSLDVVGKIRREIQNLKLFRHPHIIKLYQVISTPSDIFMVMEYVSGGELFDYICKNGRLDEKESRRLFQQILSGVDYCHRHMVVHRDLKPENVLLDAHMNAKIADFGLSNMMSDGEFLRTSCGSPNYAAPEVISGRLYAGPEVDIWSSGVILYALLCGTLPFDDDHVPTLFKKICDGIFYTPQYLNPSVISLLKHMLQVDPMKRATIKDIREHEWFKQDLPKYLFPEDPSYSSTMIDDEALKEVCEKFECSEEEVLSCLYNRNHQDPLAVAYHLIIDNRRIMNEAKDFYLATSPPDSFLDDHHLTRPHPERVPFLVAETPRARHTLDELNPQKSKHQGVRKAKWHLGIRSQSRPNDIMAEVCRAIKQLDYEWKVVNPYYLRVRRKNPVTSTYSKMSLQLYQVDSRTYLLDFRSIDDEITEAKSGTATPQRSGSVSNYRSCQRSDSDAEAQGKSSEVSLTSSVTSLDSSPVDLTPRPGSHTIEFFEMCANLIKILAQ
UniProt Q15418, whole entry: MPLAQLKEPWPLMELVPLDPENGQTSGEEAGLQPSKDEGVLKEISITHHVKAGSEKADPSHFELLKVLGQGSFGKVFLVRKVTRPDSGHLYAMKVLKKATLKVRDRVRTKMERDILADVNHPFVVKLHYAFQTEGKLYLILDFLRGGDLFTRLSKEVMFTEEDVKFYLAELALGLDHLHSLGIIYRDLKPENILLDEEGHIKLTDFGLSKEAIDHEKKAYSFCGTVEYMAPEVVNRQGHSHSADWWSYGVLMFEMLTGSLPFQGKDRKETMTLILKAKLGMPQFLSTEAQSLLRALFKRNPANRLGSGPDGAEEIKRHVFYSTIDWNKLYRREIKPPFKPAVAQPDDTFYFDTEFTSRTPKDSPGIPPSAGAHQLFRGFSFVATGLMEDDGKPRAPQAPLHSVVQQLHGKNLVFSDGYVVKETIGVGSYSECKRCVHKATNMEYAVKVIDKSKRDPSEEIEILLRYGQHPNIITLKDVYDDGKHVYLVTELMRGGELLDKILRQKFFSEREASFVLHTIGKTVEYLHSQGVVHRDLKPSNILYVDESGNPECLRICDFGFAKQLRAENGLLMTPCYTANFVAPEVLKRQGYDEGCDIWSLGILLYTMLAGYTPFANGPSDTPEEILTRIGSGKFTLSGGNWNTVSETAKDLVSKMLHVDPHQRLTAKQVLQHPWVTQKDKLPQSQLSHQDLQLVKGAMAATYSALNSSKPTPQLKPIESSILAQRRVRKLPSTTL
UniProt P31749: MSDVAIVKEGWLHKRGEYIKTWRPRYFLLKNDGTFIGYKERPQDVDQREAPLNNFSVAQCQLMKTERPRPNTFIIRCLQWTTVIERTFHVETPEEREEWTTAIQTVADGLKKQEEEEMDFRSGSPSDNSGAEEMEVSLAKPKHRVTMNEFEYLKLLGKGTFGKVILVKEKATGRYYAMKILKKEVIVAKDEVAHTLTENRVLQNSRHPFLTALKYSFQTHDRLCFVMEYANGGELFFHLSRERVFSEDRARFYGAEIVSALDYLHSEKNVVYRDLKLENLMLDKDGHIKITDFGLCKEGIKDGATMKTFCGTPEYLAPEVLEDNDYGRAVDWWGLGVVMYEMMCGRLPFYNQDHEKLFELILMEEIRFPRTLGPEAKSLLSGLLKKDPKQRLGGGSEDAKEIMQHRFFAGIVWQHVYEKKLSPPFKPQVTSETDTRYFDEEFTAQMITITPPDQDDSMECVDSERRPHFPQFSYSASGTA
UniProt P43403: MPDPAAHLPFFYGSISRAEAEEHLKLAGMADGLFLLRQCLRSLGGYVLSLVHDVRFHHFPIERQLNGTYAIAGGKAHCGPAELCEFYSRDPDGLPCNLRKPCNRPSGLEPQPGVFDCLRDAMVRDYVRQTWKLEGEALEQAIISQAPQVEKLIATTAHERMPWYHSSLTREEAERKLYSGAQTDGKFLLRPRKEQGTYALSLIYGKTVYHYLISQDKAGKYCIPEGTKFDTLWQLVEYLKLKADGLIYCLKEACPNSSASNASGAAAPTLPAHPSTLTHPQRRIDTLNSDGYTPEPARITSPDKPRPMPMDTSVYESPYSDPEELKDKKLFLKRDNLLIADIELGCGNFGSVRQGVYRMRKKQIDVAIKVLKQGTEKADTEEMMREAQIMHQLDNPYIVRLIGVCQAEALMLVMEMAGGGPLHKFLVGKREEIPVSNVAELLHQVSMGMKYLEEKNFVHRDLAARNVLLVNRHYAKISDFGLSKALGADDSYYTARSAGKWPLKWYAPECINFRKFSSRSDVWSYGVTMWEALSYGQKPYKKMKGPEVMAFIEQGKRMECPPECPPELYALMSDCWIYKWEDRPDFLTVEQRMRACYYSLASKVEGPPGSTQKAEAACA
UniProt P21802, whole entry, looked up: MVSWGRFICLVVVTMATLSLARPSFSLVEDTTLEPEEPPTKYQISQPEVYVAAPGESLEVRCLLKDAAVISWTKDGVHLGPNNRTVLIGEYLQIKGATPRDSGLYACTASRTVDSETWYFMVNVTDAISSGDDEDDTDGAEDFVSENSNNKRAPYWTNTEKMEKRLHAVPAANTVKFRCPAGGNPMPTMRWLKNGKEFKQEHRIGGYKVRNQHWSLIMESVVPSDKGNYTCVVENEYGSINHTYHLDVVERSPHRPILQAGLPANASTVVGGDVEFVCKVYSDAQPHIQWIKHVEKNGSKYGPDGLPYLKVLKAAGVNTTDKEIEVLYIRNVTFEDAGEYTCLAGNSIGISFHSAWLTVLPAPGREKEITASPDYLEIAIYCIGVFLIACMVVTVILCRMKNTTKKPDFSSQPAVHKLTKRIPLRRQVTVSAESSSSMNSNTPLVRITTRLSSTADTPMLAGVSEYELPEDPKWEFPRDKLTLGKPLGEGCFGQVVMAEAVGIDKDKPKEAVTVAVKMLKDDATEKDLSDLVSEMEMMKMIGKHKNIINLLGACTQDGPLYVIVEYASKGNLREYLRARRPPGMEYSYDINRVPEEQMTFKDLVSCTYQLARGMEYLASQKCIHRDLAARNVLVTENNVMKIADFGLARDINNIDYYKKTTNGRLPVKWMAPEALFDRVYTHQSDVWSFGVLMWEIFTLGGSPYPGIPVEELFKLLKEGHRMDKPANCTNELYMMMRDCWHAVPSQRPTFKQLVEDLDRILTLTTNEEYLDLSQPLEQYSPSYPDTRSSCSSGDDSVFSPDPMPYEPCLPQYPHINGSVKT
UniProt O96013: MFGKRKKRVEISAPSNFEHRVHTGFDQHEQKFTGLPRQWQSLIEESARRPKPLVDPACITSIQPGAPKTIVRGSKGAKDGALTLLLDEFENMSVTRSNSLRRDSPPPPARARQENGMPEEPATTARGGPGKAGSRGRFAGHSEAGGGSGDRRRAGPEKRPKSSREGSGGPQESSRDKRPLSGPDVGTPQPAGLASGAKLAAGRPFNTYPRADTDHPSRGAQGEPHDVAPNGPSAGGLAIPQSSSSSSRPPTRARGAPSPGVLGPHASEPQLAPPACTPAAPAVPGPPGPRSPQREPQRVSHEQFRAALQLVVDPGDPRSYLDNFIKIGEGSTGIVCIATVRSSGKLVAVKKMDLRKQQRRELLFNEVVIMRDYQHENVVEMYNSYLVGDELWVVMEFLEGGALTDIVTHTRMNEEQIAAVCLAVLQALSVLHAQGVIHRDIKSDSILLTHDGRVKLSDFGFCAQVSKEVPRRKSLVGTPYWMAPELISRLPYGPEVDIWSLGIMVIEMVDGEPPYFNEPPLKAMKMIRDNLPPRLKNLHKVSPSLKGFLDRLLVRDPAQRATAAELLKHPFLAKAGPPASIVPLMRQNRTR
UniProt P09619, whole entry: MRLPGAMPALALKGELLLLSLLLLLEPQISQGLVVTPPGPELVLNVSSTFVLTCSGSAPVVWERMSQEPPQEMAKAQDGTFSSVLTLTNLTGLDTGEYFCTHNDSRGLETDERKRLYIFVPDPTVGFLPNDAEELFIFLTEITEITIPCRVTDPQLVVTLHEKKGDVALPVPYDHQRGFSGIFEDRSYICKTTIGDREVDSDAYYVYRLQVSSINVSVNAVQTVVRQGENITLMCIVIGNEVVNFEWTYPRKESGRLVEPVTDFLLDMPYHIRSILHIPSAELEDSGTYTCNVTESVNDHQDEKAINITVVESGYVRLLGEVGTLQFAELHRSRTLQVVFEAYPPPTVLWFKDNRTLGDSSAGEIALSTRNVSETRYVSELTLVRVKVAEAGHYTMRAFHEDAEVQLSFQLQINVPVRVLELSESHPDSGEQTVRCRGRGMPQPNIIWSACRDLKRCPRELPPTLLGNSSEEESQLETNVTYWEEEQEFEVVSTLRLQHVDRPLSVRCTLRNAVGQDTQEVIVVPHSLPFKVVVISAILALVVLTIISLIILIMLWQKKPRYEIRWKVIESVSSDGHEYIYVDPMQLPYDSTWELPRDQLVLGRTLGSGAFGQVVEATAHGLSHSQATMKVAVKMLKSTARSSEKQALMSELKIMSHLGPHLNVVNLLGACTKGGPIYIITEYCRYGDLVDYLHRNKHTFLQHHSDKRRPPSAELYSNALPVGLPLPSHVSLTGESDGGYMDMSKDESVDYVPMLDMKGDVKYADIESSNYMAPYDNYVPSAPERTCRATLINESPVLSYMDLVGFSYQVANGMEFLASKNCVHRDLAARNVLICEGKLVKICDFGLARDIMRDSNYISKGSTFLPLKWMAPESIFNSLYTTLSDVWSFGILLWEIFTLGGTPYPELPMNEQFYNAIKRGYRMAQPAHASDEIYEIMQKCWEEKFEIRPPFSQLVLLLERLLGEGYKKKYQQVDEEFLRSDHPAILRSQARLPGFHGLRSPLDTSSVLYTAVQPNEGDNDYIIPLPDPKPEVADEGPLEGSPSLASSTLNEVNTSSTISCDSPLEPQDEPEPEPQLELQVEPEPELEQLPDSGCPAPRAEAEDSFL

Assays:
Assay in all cases: number of time points (of 5) at which kinase-Nluc abundance scored as decreased, DMSO-normalised (count); higher = more persistent destabilization
Settings in all cases: 10 µM; K562; 2-18 h
[1] = compound: O=C(Nc1ccncc1)Nc1ccc(-c2nc(N3CCOCC3)nc(N3C4CCC3COC4)n2)cc1
Larotrectinib sulfate = compound: O=C(Nc1cnn2ccc(N3CCC[C@@H]3c3cc(F)ccc3F)nc12)N1CC[C@H](O)C1 [Larotrectinib sulfate]
Larotrectinib = compound: O=C(Nc1cnn2ccc(N3CCC[C@@H]3c3cc(F)ccc3F)nc12)N1CC[C@H](O)C1 [Larotrectinib]
[2] = compound: O=C(O)c1ccc2c(c1)nc(Nc1cccc(Cl)c1)c1ccncc12 [Silmitasertib (sodium salt)]
Silmitasertib = compound: O=C(O)c1ccc2c(c1)nc(Nc1cccc(Cl)c1)c1ccncc12 [Silmitasertib]
[3] = compound: O=C(c1ccc(F)c(F)c1Nc1ccc(I)cc1F)N1CC(O)([C@@H]2CCCCN2)C1 [Cobimetinib (hemifumarate)]
Cobimetinib = compound: O=C(c1ccc(F)c(F)c1Nc1ccc(I)cc1F)N1CC(O)([C@@H]2CCCCN2)C1 [Cobimetinib]
[4] = compound: O=C(c1nn(-c2ccc(CN3CCOCC3)cc2)c2c1CS(=O)(=O)c1c(F)cccc1-2)N1CCOCC1
(E/Z)-GSK-3β inhibitor 1 = compound: O=C1Nc2ccccc2/C1=C/c1ccccn1 [(E/Z)-GSK-3β inhibitor 1]
GSK-3β inhibitor 1 = compound: O=C1Nc2ccccc2/C1=C/c1ccccn1 [GSK-3β inhibitor 1]

Measured: number of time points

MKNK1 (UniProt Q9BUB5)
0: [1] | Larotrectinib sulfate | Larotrectinib | Silmitasertib | [3] | [4] | (E/Z)-GSK-3β inhibitor 1 | GSK-3β inhibitor 1
3: [2] | Cobimetinib

STK24 (UniProt Q9Y6E0)
0: [1] | Larotrectinib sulfate | Larotrectinib | [2] | Silmitasertib | [3] | Cobimetinib | [4] | (E/Z)-GSK-3β inhibitor 1 | GSK-3β inhibitor 1

CDK3 (UniProt Q00526)
2: Larotrectinib sulfate
0: [1] | Larotrectinib | [2] | Silmitasertib | [3] | Cobimetinib | [4] | (E/Z)-GSK-3β inhibitor 1 | GSK-3β inhibitor 1

MAP4K2 (UniProt Q12851)
0: [1] | Larotrectinib sulfate | Larotrectinib | [2] | Silmitasertib | [3] | Cobimetinib | [4] | (E/Z)-GSK-3β inhibitor 1 | GSK-3β inhibitor 1

HER2 (UniProt P04626)
0: [1] | Larotrectinib sulfate | Larotrectinib | [2] | [3] | Cobimetinib | [4] | (E/Z)-GSK-3β inhibitor 1 | GSK-3β inhibitor 1
3: Silmitasertib

CSNK1D (UniProt P48730)
4: [1]
1: Cobimetinib
0: Larotrectinib sulfate | Larotrectinib | [2] | Silmitasertib | [3] | [4] | (E/Z)-GSK-3β inhibitor 1 | GSK-3β inhibitor 1

BRAF (UniProt P15056)
3: Silmitasertib
1: [2]
0: Larotrectinib sulfate | Larotrectinib | [3] | Cobimetinib | [4] | (E/Z)-GSK-3β inhibitor 1 | GSK-3β inhibitor 1
2: [1]

AURKA (UniProt O14965)
4: [1]
0: Larotrectinib sulfate | Larotrectinib | [2] | Silmitasertib | [4] | (E/Z)-GSK-3β inhibitor 1 | GSK-3β inhibitor 1
3: [3]
1: Cobimetinib

FGFR3 (UniProt P22607)
0: [1] | Larotrectinib sulfate | Larotrectinib | [2] | Silmitasertib | [3] | Cobimetinib | [4] | (E/Z)-GSK-3β inhibitor 1 | GSK-3β inhibitor 1

SYK (UniProt P43405)
0: [1] | Larotrectinib sulfate | Larotrectinib | [2] | Silmitasertib | [3] | Cobimetinib | [4] | (E/Z)-GSK-3β inhibitor 1 | GSK-3β inhibitor 1

PDPK1 (UniProt O15530)
2: Cobimetinib
0: [1] | Larotrectinib sulfate | Larotrectinib | Silmitasertib | [3] | [4] | (E/Z)-GSK-3β inhibitor 1 | GSK-3β inhibitor 1
4: [2]

SRC (UniProt P12931)
0: [1] | Larotrectinib sulfate | Larotrectinib | [2] | Silmitasertib | [3] | Cobimetinib | [4] | (E/Z)-GSK-3β inhibitor 1 | GSK-3β inhibitor 1

ROR2 (UniProt Q01974)
0: [1] | Larotrectinib sulfate | Larotrectinib | [2] | Silmitasertib | [3] | Cobimetinib | [4] | (E/Z)-GSK-3β inhibitor 1 | GSK-3β inhibitor 1

ULK3 (UniProt Q6PHR2)
1: Cobimetinib
2: [3]
3: [2]
0: [1] | Larotrectinib sulfate | Larotrectinib | Silmitasertib | [4] | (E/Z)-GSK-3β inhibitor 1 | GSK-3β inhibitor 1

BRAF_V600E
3: [2] | [3] | Cobimetinib
0: Larotrectinib sulfate | Larotrectinib | Silmitasertib | [4] | (E/Z)-GSK-3β inhibitor 1 | GSK-3β inhibitor 1
1: [1]

EGFR_G719S_T790M (UniProt P00533)
0: [1] | Larotrectinib sulfate | Larotrectinib | Silmitasertib | [4] | (E/Z)-GSK-3β inhibitor 1 | GSK-3β inhibitor 1
2: [3]
1: Cobimetinib
3: [2]

LCK (UniProt P06239)
0: [1] | Larotrectinib sulfate | Larotrectinib | [2] | Silmitasertib | [3] | Cobimetinib | [4] | (E/Z)-GSK-3β inhibitor 1 | GSK-3β inhibitor 1

DDR1 (UniProt Q08345)
1: [3] | Cobimetinib
3: [1]
0: Larotrectinib sulfate | Larotrectinib | [2] | Silmitasertib | [4] | (E/Z)-GSK-3β inhibitor 1 | GSK-3β inhibitor 1

EGFR_G719S (UniProt P00533)
4: Silmitasertib
2: [2] | [3] | Cobimetinib
0: [1] | Larotrectinib sulfate | Larotrectinib | [4] | (E/Z)-GSK-3β inhibitor 1 | GSK-3β inhibitor 1

BMX (UniProt P51813)
4: Silmitasertib
3: [2]
1: [3] | Cobimetinib
0: [1] | Larotrectinib sulfate | Larotrectinib | [4] | (E/Z)-GSK-3β inhibitor 1 | GSK-3β inhibitor 1

DYRK1B (UniProt Q9Y463)
1: Cobimetinib
0: [1] | Larotrectinib sulfate | Larotrectinib | [2] | Silmitasertib | [3] | [4] | (E/Z)-GSK-3β inhibitor 1 | GSK-3β inhibitor 1

MAP2K2 (UniProt P36507)
0: [1] | Larotrectinib sulfate | Larotrectinib | [2] | Silmitasertib | [3] | Cobimetinib | [4] | (E/Z)-GSK-3β inhibitor 1 | GSK-3β inhibitor 1

ZAK (UniProt Q9NYL2)
0: [1] | Larotrectinib sulfate | Larotrectinib | Silmitasertib | [3] | Cobimetinib | [4] | (E/Z)-GSK-3β inhibitor 1 | GSK-3β inhibitor 1
1: [2]

PDK1 (UniProt Q15118)
0: [1] | Larotrectinib sulfate | Larotrectinib | [2] | Silmitasertib | [3] | Cobimetinib | [4] | (E/Z)-GSK-3β inhibitor 1 | GSK-3β inhibitor 1

PTK2B (UniProt Q14289)
2: [2] | [3]
0: [1] | Larotrectinib sulfate | Larotrectinib | Silmitasertib | Cobimetinib | [4] | (E/Z)-GSK-3β inhibitor 1 | GSK-3β inhibitor 1

EPHA2 (UniProt P29317)
1: Silmitasertib | [3]
0: [1] | Larotrectinib sulfate | Larotrectinib | [2] | Cobimetinib | [4] | (E/Z)-GSK-3β inhibitor 1 | GSK-3β inhibitor 1

PRKAA1 (UniProt Q13131)
2: [2] | [3]
0: [1] | Larotrectinib sulfate | Larotrectinib | Silmitasertib | [4] | (E/Z)-GSK-3β inhibitor 1 | GSK-3β inhibitor 1
1: Cobimetinib

BTK (UniProt Q06187)
2: Silmitasertib
0: [1] | Larotrectinib sulfate | Larotrectinib | [2] | [3] | Cobimetinib | [4] | (E/Z)-GSK-3β inhibitor 1 | GSK-3β inhibitor 1

ABL1 (UniProt P00519)
5: [1] | [2]
0: Larotrectinib sulfate | Larotrectinib | Silmitasertib | [4] | (E/Z)-GSK-3β inhibitor 1 | GSK-3β inhibitor 1
2: [3] | Cobimetinib

EGFR_T790M (UniProt P00533)
0: [1] | Larotrectinib sulfate | Larotrectinib | Silmitasertib | [3] | Cobimetinib | [4] | (E/Z)-GSK-3β inhibitor 1 | GSK-3β inhibitor 1
2: [2]

CSNK1A1 (UniProt P48729)
0: [1] | Larotrectinib sulfate | Larotrectinib | [3] | Cobimetinib | [4] | (E/Z)-GSK-3β inhibitor 1 | GSK-3β inhibitor 1
4: Silmitasertib
2: [2]

BLK (UniProt P51451)
0: [1] | Larotrectinib sulfate | Larotrectinib | [2] | Silmitasertib | [3] | Cobimetinib | [4] | (E/Z)-GSK-3β inhibitor 1 | GSK-3β inhibitor 1

PIK4CB (UniProt Q9UBF8)
1: Cobimetinib
2: [2] | [3]
0: [1] | Larotrectinib sulfate | Larotrectinib | Silmitasertib | [4] | (E/Z)-GSK-3β inhibitor 1 | GSK-3β inhibitor 1

RPS6KA1 (UniProt Q15418)
0: [1] | Larotrectinib sulfate | Larotrectinib | [2] | Silmitasertib | [3] | Cobimetinib | [4] | (E/Z)-GSK-3β inhibitor 1 | GSK-3β inhibitor 1

AKT1 (UniProt P31749)
0: [1] | Larotrectinib sulfate | Larotrectinib | [2] | Silmitasertib | [3] | Cobimetinib | [4] | (E/Z)-GSK-3β inhibitor 1 | GSK-3β inhibitor 1

ZAP70 (UniProt P43403)
0: [1] | Larotrectinib sulfate | Larotrectinib | [2] | Silmitasertib | [3] | Cobimetinib | [4] | (E/Z)-GSK-3β inhibitor 1 | GSK-3β inhibitor 1

FGFR2 (UniProt P21802)
2: [3] | Cobimetinib
0: Larotrectinib sulfate | Larotrectinib | Silmitasertib | [4] | (E/Z)-GSK-3β inhibitor 1 | GSK-3β inhibitor 1
3: [1] | [2]

ERBB4_R711C (clone: ERBB4_mut) (UniProt Q15303)
3: [2]
1: Cobimetinib
0: [1] | Larotrectinib sulfate | Larotrectinib | Silmitasertib | [3] | [4] | (E/Z)-GSK-3β inhibitor 1 | GSK-3β inhibitor 1

CDK2 (UniProt P24941)
0: [1] | Larotrectinib sulfate | Larotrectinib | [2] | Silmitasertib | [3] | Cobimetinib | [4] | (E/Z)-GSK-3β inhibitor 1 | GSK-3β inhibitor 1

RET (UniProt P07949)
0: [1] | Larotrectinib sulfate | Larotrectinib | Silmitasertib | [3] | Cobimetinib | [4] | (E/Z)-GSK-3β inhibitor 1 | GSK-3β inhibitor 1
2: [2]

FYN (UniProt P06241)
2: [2]
1: [1]
0: Larotrectinib sulfate | Larotrectinib | Silmitasertib | [3] | Cobimetinib | [4] | (E/Z)-GSK-3β inhibitor 1 | GSK-3β inhibitor 1

PAK4 (UniProt O96013)
0: [1] | Larotrectinib sulfate | Larotrectinib | [2] | Silmitasertib | [3] | Cobimetinib | [4] | (E/Z)-GSK-3β inhibitor 1 | GSK-3β inhibitor 1

TYK2 (UniProt P29597)
5: Silmitasertib
0: [1] | Larotrectinib sulfate | Larotrectinib | [3] | Cobimetinib | [4] | (E/Z)-GSK-3β inhibitor 1 | GSK-3β inhibitor 1
3: [2]

MAP2K1 (UniProt Q02750)
0: [1] | Larotrectinib sulfate | Larotrectinib | [2] | Silmitasertib | [3] | Cobimetinib | [4] | (E/Z)-GSK-3β inhibitor 1 | GSK-3β inhibitor 1

PDGFRB (UniProt P09619)
3: [2]
0: [1] | Larotrectinib sulfate | Larotrectinib | Silmitasertib | [3] | Cobimetinib | [4] | (E/Z)-GSK-3β inhibitor 1 | GSK-3β inhibitor 1

INSRR (UniProt P14616)
1: Cobimetinib
0: [1] | Larotrectinib sulfate | Larotrectinib | Silmitasertib | [4] | (E/Z)-GSK-3β inhibitor 1 | GSK-3β inhibitor 1
3: [2]
2: [3]

ERN1 (UniProt O75460)
0: [1] | Larotrectinib sulfate | Larotrectinib | Silmitasertib | [3] | Cobimetinib | [4] | (E/Z)-GSK-3β inhibitor 1 | GSK-3β inhibitor 1
2: [2]
